Experiment [1] deals with FtsQ (E. coli (endogenous in MC4100)) (UniProt P06136). Put plainly: native gel or EMSA; clear native PAGE (CN-PAGE, 4 °C) of mid-exponential E. coli MC4100 whole cells treated with lysozyme and solubilised with 1% DDM (750 mM aminocaproic acid, 50 mM Bis Tris pH 7.0); native gel Western-blotted and probed with antibodies; co-migration at about 1 MDa; also cells with an extra plasmid copy of ftsQ or ftsQ-D237N, without or with 0.2% arabinose. In general terms: Mobility shift assays separate free from complexed probe on a gel.

Sequences of proteins named here, by UniProt entry; tags and fusion partners are left off.
UniProt P68699: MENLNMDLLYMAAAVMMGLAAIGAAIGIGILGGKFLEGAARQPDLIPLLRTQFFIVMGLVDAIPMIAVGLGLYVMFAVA
UniProt P0AGA2: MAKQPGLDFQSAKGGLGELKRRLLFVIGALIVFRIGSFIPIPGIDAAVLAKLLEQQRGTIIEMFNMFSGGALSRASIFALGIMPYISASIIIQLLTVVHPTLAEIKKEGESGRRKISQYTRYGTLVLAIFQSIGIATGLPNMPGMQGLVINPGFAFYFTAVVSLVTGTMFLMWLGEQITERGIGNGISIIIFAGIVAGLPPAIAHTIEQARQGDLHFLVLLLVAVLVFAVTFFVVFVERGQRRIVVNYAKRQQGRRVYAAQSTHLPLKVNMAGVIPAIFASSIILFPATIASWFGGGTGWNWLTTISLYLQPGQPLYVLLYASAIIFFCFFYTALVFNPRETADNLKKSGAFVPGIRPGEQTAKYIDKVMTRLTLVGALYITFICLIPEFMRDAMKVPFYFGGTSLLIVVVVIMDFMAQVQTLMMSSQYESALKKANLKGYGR
UniProt P0A9A6: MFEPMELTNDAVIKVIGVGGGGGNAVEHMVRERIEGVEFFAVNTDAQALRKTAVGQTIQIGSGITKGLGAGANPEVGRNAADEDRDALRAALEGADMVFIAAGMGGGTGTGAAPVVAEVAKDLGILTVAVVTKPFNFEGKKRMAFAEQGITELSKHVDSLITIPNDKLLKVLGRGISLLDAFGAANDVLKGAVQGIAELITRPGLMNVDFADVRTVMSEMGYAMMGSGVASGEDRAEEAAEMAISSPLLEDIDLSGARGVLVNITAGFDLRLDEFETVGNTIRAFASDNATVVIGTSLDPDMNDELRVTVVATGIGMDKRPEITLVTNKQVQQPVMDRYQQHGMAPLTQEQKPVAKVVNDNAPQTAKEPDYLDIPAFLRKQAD

The target is the same in experiment [2]. Put plainly: native gel or EMSA; as a3 but gel fragment cut at the same height from the lane of stationary phase cells.
Experiment [3] has the same target. Put plainly: native gel or EMSA; 1 MDa band (found by anti-FtsQ) excised from the Coomassie-stained CN-PAGE gel of mid-exponential cells, run on SDS-PAGE, Western-blotted and probed with antibodies against division proteins.

These are yes or no findings as the source states them, for the method shown. Some entries that bind do so weakly or less than the wild type.

On to “Foc (component of the F1-Fo ATP synthase) (from UniProt P68699 1-79)”, for which the binding entry in experiment [1] was “no binding”. The same measure, in the same setting: as for “SecY (component of the SecYEG translocon) (from UniProt P0AGA2 1-443)”, the entry is “no binding”. FtsZ (from UniProt P0A9A6 1-383): the binding result is “no binding (condition: cells in stationary growth phase)” in experiment [2] and “binds” in experiment [3]. Taken in the same sequence, the figures for ZipA (from UniProt P77173 1-328) were “no binding (condition: cells in stationary growth phase)” and “binds”.
